Consider 1 sequence from publication PMC5996148.

The chains behind the UniProt entries cited, without tags or fusion partners. Where a name states a change or a piece, a line headed by the entry shows the natural chain unless it says otherwise.
UniProt P31941: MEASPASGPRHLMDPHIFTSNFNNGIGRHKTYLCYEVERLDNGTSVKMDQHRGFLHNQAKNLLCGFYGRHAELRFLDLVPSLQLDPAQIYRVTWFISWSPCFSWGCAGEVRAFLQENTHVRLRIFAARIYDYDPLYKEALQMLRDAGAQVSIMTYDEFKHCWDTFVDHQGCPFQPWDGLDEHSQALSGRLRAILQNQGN
UniProt P05067, whole entry: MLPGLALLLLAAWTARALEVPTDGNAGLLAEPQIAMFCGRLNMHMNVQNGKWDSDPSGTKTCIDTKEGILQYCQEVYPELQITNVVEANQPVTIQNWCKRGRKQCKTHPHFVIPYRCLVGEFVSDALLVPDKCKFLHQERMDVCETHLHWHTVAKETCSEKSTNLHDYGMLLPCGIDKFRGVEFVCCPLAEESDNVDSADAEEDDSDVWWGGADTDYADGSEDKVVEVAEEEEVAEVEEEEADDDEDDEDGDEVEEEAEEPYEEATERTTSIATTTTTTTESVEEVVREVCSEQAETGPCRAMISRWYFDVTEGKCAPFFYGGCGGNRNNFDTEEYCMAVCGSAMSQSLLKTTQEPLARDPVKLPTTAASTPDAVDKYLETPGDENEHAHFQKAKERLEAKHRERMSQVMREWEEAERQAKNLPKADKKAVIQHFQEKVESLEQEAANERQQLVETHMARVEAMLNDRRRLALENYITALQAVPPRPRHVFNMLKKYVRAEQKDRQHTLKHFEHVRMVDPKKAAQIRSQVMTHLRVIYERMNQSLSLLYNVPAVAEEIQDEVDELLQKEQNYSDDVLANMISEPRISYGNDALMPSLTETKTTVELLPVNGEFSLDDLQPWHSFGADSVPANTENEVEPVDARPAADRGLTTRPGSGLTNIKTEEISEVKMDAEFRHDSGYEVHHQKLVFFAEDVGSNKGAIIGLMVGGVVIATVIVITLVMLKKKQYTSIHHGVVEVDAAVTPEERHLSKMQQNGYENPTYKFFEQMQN

Values joined by “and” are separate entries in the source; they are usually repeats but may differ in a detail not shown here. Equal entries are not always repeated. Some of the results follow. For some assays here: The source does not settle which construct or isoform was used.

Among the test systems are AMDHD1 (human); AMELX (human); ANKHD1 (human); ANKRD45 (human); ANKRD50 (human); ANPEP (human); ANXA6 (human); ANXA7 (human); ANXA9 (human); APBA2BP (human); APIP (human); APITD1 (human); APOA1 (human); APOA2 (human); APOC2 (human); APOH (human).
What all share (experiment): protein microarray (ProtoArray v5.0), streptavidin-Alexa Fluor 647
Details in all cases: 3'-biotin; 20 mM Tris (pH 7.5), 5 mM MgCl2, 100 mM KCl, 0.1% Tween-20, A/T-rich and random oligonucleotide blockers; temperature not stated; high values mean tight binding

The next assay deals with T1, APBB1IP (UniProt Q7Z5R6).
T1 sequence: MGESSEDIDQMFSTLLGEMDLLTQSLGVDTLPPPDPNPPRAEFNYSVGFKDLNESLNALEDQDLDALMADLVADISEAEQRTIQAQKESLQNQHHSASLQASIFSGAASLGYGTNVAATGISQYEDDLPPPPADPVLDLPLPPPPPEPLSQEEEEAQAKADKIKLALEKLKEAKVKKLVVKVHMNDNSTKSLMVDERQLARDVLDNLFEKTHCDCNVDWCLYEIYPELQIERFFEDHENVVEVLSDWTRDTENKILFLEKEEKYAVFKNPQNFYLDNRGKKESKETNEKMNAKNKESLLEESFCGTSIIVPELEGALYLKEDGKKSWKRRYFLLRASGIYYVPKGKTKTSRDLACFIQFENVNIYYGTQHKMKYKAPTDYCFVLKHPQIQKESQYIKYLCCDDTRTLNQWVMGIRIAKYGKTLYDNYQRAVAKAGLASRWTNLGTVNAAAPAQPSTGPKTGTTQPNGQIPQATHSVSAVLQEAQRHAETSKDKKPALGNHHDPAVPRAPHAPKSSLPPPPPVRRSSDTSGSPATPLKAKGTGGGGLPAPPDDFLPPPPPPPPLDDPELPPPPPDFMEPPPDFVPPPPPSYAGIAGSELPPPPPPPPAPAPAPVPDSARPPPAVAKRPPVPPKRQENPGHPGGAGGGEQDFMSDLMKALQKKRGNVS

The next assay deals with APOBEC3A (UniProt P31941).
Another assay addresses T2, APOBEC3C (UniProt Q9NRW3).
T2 sequence: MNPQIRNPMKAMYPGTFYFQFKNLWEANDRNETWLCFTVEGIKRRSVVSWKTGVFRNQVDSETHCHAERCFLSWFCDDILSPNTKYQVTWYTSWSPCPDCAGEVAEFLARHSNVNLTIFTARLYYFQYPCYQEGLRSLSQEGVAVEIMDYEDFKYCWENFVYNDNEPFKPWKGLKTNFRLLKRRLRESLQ

The next assay has as its target APP (UniProt P05067).

Regarding “GGTGACAGGGGTATGGGGAGGGG [G4-2 biotinylated (Ct1)]”, the binding signal in the assay with AMDHD1 (human) is -0.371 z-score; in the assay with AMELX (human) it was -0.388 z-score; in the assay with ANKHD1 (human) it was -0.393 z-score; with ANKRD45 (human), -0.383 z-score; in the assay on ANKRD50 (human), -0.383 z-score; in the assay with ANPEP (human), -0.364 z-score. For the same sequence, the binding signal is -0.37 z-score in the assay on ANXA6 (human); -0.386 z-score in the assay on ANXA7 (human); -0.407 z-score in the assay with ANXA9 (human); -0.391 z-score in the assay on APBA2BP (human); -0.389 z-score in the assay with APBB1IP; -0.38 z-score and -0.378 z-score in the assay on APIP (human). Moreover, the binding signal in the assay on APITD1 (human) is -0.389 z-score; in the assay with APOA1 (human), -0.404 z-score; with APOA2 (human), -0.396 z-score; in the assay with APOBEC3A, -0.385 z-score; with APOBEC3C, 3.46 z-score; with APOC2 (human), -0.378 z-score. The binding signal was -0.385 z-score with APOH (human) and -0.37 z-score with APP.
